Measured values as given in doi:10.1101/2021.06.18.449075.
These are yes or no findings as the source states them, for the method shown. In cells and extracts the contact can be indirect. Some binding calls cover weakened binding; strength is not graded here. Sequences can lack the tags named with a protein.

Biological target: T1, His-tagged OsSRT1 (rice (Oryza sativa indica)) (UniProt B8ARK7)
T1 sequence: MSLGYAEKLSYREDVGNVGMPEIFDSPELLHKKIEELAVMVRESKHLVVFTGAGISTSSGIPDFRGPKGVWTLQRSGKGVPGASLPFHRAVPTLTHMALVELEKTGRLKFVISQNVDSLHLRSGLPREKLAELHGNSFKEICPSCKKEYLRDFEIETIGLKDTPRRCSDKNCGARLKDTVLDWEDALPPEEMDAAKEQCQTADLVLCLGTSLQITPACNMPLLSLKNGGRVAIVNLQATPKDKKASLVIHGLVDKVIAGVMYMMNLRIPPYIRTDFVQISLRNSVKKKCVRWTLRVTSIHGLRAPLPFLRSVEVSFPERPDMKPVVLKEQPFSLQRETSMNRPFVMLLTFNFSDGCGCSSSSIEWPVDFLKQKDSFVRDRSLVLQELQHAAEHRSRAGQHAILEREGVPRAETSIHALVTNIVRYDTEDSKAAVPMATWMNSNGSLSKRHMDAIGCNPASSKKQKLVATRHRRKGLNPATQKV
Assay: pull-down

binding: binds
B1: OsPARP1 (enzyme, UniProt Q7EYV7 1-977)
chain: MAAPPKAWKAEYAKSGRSSCKSCRSPIGKDQLRLGKMVQATQFDGLMPMWNHASCILSKKNQIKSVDDVEGIDTLRWDDQEKIRNYVGSAPATASSAAAISDKCTIEVAKSARTSCRRCGEKIKKGTVRVSSKLEGQGWYHASCFLEMSPAATVENFSGWEILSHEDKRAVLDLVKKDAPSSGQTSSKGSKRKNNQNDIHDCKAPKIIRSISEGTAEDKGKAVVSHDSNANSSDLQEKLKEQSDTLWKLKDELKKHVSTAELRNMLEANGQDTSGPERHLLDRCADGMLFGALGTCPVCSSFLYYHGGQYHCSGYVSEWSKCTYSTTEPVRSKKKWKIPDEMDNGYLTKWFKSQKAKKPERVLPPMSPEKSLCQSTQQNRSFLSEGLDKLRVSIVGQSKDVVDGWKQKLKDAGANFNATVTKDSSCLVLCSELESENAEVKKARRLKIPILREGYLGECIRKNRVLPFDLYKVEAALESSKGGTMTVKVKGRSAVHESSGLQDTGHILEDGKSIYNTTLNMSDLTRGVNSYYILQVIEEDNGSDCYVFRKWGRVGNEKIGGTKLEEMSKIHAIQEFRRLFLEKTGNPWEAWEQKTNFQKQPGKFYPLDIDYGVRQGPKRKDIDKMKSSLPPQLLELMNMLFNIETYRAAMLEFKINMSEMPLGKLSKENIQKGFEALTEIQNLLGNTNNQELAVRESLIVAASNRFFTLIPSIHPHIIQDEDDLMVKVKMLEALQDIEIASKLVGFDSDNDESLDDKYKKLRCAITPLPHDCEDYKLVEKYLLNTHAPTHKEWSLELEEVFSLDRDGEFSKYSRYKNNLHNKMLLWHGSRLTNYVGILSQGLRIAPPEAPVTGYMFGKGLYFADLVSKSAQYCYVDRKNPVGLMLLSEVALGDMYELKKATSMDKPPRGKHSTKGLGKTVPLESEFAKWRDDVVVPCGKPVPASIKTSELMYNEYIVYNTSQVKMQYLLKVRFHHKR
